Most values lie at the floor of the assay. Slopes are relative: functional sequences can read slightly below zero.
Tested on: Saccharomyces cerevisiae PS128 hsf1 delta, HSF1(1-493) fusion
Assay: growth estimate (transactivation domain function in HSF1 fusion, heat-shock survival) (a.u. (slope of normalised read count over time)); higher = stronger growth at 37°C, i.e. more transactivation activity
Conditions: library: random library

Row | Substance | growth estimate
1 | KLDGCGLRGIGSMGMVM | < -0.25
2 | RTQF | -0.231
3 | LQDLTLFAE | < -0.25
4 | GLAHVHGVLSAGLQSVGVNQ | < -0.25
5 | PSKLGIYTLLKRLGR | < -0.25
6 | THDSIVGARGYTVQSQLAYV | < -0.25
7 | SPVCFGSNEWKHKFSVTPAG | < -0.25
8 | HLSRLYP | < -0.25
9 | RPM | < -0.25
10 | PNVRRASVRVI | < -0.25
11 | TLAAGRTARNPAASVQ | < -0.25
12 | EPFSFSWRILSSGTCQQHPR | < -0.25
13 | FKERDSDVTTHAIPLRGDPV | < -0.25
14 | MERQIIIRRPSGVTEYPSLE | < -0.25
15 | LHEQYSPTTGMLYGRHICPI | < -0.25
16 | QYGVTSRY | < -0.25
17 | LRSGLKRVLRVLALTASSRP | < -0.25
18 | GNRGELTHCGGGKHNQERST | < -0.25
19 | DSMGHLGASTRIATPVPCSR | < -0.25
20 | VEGLHVDGWEPPCARTTLLA | < -0.25
21 | HCYRSGAQIPYFVRKLCTHL | < -0.25
22 | GVPRRYG | < -0.25
23 | EHTSPSIWLSLS | < -0.25

Row | Substance | growth estimate
24 | GTGPLSSCLYQWADSSNTAL | < -0.25
25 | GNGSSCRVITQHLLVTPGAP | < -0.25
26 | AILNRCRVWWLLRGQMSSFS | < -0.25
27 | RTVAFRGLSDLVAPTVPY | < -0.25
28 | LGYQKRFSRSWTD | < -0.25
29 | VLVSPGDSVCFMIWDQEGFI | < -0.25
30 | RLWRFRMSSPAFP | < -0.25
31 | AGTKIEHVVSGPLDLSRFKT | < -0.25
32 | VCQR | < -0.25
33 | RWSLLHPSLQPAAPWTRSVG | < -0.25
34 | YSTRSRLGPIRPIVRG | < -0.25
35 | TLGHGNVMAEY | < -0.25
36 | NRDA | < -0.25
37 | GELECFPPH | < -0.25
38 | RLQMR | < -0.25
39 | QFHYTA | < -0.25
40 | VCTIGLSRKWELRIRECQPC | < -0.25
41 | VAYPM | < -0.25
42 | SPSESRL | < -0.25
43 | PILDPVGNSHLAA | < -0.25
44 | VALLTIWDWVGGLSGGYNHA | < -0.25
45 | GTDCRFQNLLASCVG | < -0.25
46 | EERTVGCQDGEV | < -0.25

Row | Substance | growth estimate
47 | KILP | < -0.25
48 | TTHWGTILAEDQQSIHCGYS | < -0.25
49 | WGALQAAEVAPADTDSSCVH | < -0.25
50 | SPCAAL | < -0.25
51 | LHTV | < -0.25
52 | SMSQDPVQSTELRAYHTTRH | < -0.25
53 | ISPKTVSTGRVLARGMLLSH | < -0.25
54 | QRGLLSTTWCPTFLLPLLFQ | < -0.25
55 | GSDLGPD | < -0.25
56 | FNRYLL | < -0.25
57 | VCYGRRTFLLDGGGAAEVQT | -0.231
58 | KRDEGY | < -0.25
59 | VDVWDWKGSWRAEGKVDALQ | < -0.25
60 | LESPVNVPYRRGMLPTIEIG | < -0.25
61 | VIAIVLSKCPFSVTIR | < -0.25
62 | SVYAKPNALISLSTSLRTRP | < -0.25
63 | RRPNGRRSEVLQCVREYRLC | < -0.25
64 | RRNLNICDLEVPFKTLPWRA | < -0.25
65 | KTGSNNECLSELVWD | < -0.25
66 | PFFSGSKTEQP | < -0.25
67 | VGSLLDGIWLARGH | < -0.25
68 | SLVRRRSCGGGLAIKERFDL | -0.246
69 | GLPSSTGIYRHWLAKHQPMI | < -0.25

Row | Substance | growth estimate
70 | VCIHS | < -0.25
71 | LVKVIVIDQFISNTKMSVMG | < -0.25
72 | GRADVN | < -0.25
73 | GQFTKEIGS | < -0.25
74 | LLYGLPGPSVQNPDPKRCRT | < -0.25
75 | GRLYHARLMAQSPCMGGGVV | < -0.25
76 | LCLVADRSWRMESGTPRTRY | < -0.25
77 | MSFTVYW | < -0.25
78 | RLTATVCINSLSPRRQGKNV | < -0.25
79 | EGRFPVRTW | < -0.25
80 | SRAKTSKWGLG | -0.245
81 | VGWRFVKAFYRDMWDGRIWS | < -0.25
82 | LKG | < -0.25
83 | SYYKSSCLCSDQ | < -0.25
84 | TLGYRHVGA | < -0.25
85 | PYGESL | < -0.25
86 | LEKCETIRGALINPR | < -0.25
87 | GLRMLSRPIER | < -0.25
88 | TNLLSHNFMIAILT | < -0.25
89 | SAGVQGTTDE | < -0.25
90 | PSSDRGGRNLSNI | < -0.25
91 | AGADRVRSCET | < -0.25
92 | VVPIVRTVRMTAYAAART | < -0.25

Row | Substance | growth estimate
93 | NRAWIRTLVCLGAFLCAQLR | < -0.25
94 | SLVLLLLGLLSGYGC | < -0.25
95 | AVYCFRITVE | < -0.25
96 | KLYISAQASMLSSHFRRSSQ | < -0.25
97 | PAGRDPSLQWVDTSVLFSLV | < -0.25
98 | RWDRNDRMYLRRYRASRFSR | < -0.25
99 | LRLMHQLCSVVHIKCRARRY | < -0.25
100 | VLCMTLHFFGDYALGEYPPP | < -0.25
101 | ITSPDQWDTTALA | < -0.25
102 | GVFIHTSAAIMGGYGRERIL | < -0.25
103 | IIYPSTPRTAALFVVPQRRD | < -0.25
104 | LVQVTA | < -0.25
105 | RRRRFRFGRRRQLRHMRVGI | < -0.25
106 | PISFHVNLSQTSLPPIAQFA | < -0.25
107 | LKE | < -0.25
108 | ARERPLFWLRRIVVRQTASM | < -0.25
109 | SIRCQPPREIRFFDISRFSI | < -0.25
110 | GSGKHCIRGYY | < -0.25
111 | KKAKKCGTTVSHLLCYRCSV | < -0.25
112 | IKWGNFEASEASGGLQAVSA | < -0.25
113 | LQSVH | < -0.25
114 | SPLILFKHVLDWKSRW | < -0.25
115 | YKRRISNRTERPVGESFVGL | < -0.25

Row | Substance | growth estimate
116 | LIKCERRRDLPLAAVHWCDV | < -0.25
117 | TTGDGRLV | < -0.25
118 | PFETRWGRNCPGPCFI | < -0.25
119 | LPMVWNKGLM | < -0.25
120 | EGIVV | < -0.25
121 | LVEDTKAKAPAARMHCQTGC | < -0.25
122 | RTPLLEFIL | < -0.25
123 | VFGVRPRPWGLVPQRVVVPA | < -0.25
124 | HYCKRLMVCYGCAKSRIVSG | < -0.25
125 | VQLNSSVYCSGIQVCKLSVH | < -0.25
126 | SQLNLVVPRHVDRASGPGSK | < -0.25
127 | RIACPRI | < -0.25
128 | IAVGRVKGNPSPNAMV | < -0.25
129 | GWTETLRYKRMVILSPRRVW | < -0.25
130 | CDSPRIDLCTPLATSV | < -0.25
131 | TCFSPSSANLANTSGSMTRR | < -0.25
132 | KSGKSNPAGWGSTQT | < -0.25
133 | LGPTLPRALGPLREDQTIAL | < -0.25
134 | SQCRNSPGRSLLGKRQVIMR | < -0.25
135 | YIRGCAIWSYPRPGLCTSLD | < -0.25
136 | TLGVMTGYDSVLCDSVT | < -0.25
137 | PEPGRCEKLIGILRTSGVRE | < -0.25
138 | LPPYNL | < -0.25

Some of the entries so far, comma-delimited:
Row,Substance,growth estimate
26,AILNRCRVWWLLRGQMSSFS,< -0.25
61,VIAIVLSKCPFSVTIR,< -0.25
80,SRAKTSKWGLG,-0.245
98,RWDRNDRMYLRRYRASRFSR,< -0.25
126,SQLNLVVPRHVDRASGPGSK,< -0.25

Remaining list, next part:

Row | Substance | growth estimate
139 | HRLKRWIFARSATAQRFS | < -0.25
140 | RGGHIELLVVNLRRRDS | < -0.25
141 | SQGGHGTGFTAAK | < -0.25
142 | VAPLQRTQAHQQRQDCWTGR | < -0.25
143 | GTECCCPSLHVLGSARLLRS | < -0.25
144 | RYFLGKEPGRE | < -0.25
145 | GLLFRLVAGLGKLRCYDTYV | < -0.25
146 | VKLSRAEQIEGYLVVTSHGM | < -0.25
147 | FGQQSKSKRVGC | < -0.25
148 | VPESKRLHGAVPRSHQRITY | < -0.25
149 | RCQQAYL | < -0.25
150 | LFHSVLNASATAVTREVTYD | < -0.25
151 | YVDLEDVISRDGLSLFSELG | 2.44
152 | EDIMVAIGQTGSCWALYEIG | < -0.25
153 | CVS | < -0.25
154 | FWYSGL | -0.249
155 | THS | < -0.25
156 | RGMQAGFEFMA | < -0.25
157 | GTHSWARYDP | < -0.25

A second format for some results above:
SQLNLVVPRHVDRASGPGSK
  growth estimate = < -0.25
RIACPRI
  growth estimate = < -0.25
IAVGRVKGNPSPNAMV
  growth estimate = < -0.25

Entries 154 to 157, quoted:
Row | Substance | growth estimate
154 | FWYSGL | -0.249
155 | THS | < -0.25
156 | RGMQAGFEFMA | < -0.25
157 | GTHSWARYDP | < -0.25

— the supplement of paper PMC5949888
